Some of the results follow.
Compound: CC1=C(C2=C(C=C1)C(=O)C3=CC=CC=C3N2CCCN)C
Test: log2 fold change, soluble protein after heating vs DMSO (PISA); higher = thermal stabilisation; K562 lysate, 10 uM; active = over 0.2 and 3.5 SD of the protein, either way, in both replicates (recomputed)
Procedure, shortened: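 Values give the log-two fold change in thermal stability against solvent controls, from duplicates. Crude K562 extract at 1 mg/mL protein, made by dounce homogenisation in PBS pH 7.4 with 1 mM MgCl2, was treated with 10 μM compound for 30 min. After 3 min heating across 48°C-58°C, aliquots were pooled, adjusted to 0.5% NP-40 at 4°C and centrifuged at 21,000xg for 90 min. The supernatant was measured by TMTpro 16plex LC-MS/MS with channel sums equalised.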

By UniProt entry, the sequences of proteins in these tests, tags left out. Where a name states a change or a piece, a line headed by the entry shows the natural chain unless it says otherwise.
UniProt P07311: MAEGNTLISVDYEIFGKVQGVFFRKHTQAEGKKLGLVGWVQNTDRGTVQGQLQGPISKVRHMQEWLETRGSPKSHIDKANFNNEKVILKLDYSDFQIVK
UniProt Q7Z591: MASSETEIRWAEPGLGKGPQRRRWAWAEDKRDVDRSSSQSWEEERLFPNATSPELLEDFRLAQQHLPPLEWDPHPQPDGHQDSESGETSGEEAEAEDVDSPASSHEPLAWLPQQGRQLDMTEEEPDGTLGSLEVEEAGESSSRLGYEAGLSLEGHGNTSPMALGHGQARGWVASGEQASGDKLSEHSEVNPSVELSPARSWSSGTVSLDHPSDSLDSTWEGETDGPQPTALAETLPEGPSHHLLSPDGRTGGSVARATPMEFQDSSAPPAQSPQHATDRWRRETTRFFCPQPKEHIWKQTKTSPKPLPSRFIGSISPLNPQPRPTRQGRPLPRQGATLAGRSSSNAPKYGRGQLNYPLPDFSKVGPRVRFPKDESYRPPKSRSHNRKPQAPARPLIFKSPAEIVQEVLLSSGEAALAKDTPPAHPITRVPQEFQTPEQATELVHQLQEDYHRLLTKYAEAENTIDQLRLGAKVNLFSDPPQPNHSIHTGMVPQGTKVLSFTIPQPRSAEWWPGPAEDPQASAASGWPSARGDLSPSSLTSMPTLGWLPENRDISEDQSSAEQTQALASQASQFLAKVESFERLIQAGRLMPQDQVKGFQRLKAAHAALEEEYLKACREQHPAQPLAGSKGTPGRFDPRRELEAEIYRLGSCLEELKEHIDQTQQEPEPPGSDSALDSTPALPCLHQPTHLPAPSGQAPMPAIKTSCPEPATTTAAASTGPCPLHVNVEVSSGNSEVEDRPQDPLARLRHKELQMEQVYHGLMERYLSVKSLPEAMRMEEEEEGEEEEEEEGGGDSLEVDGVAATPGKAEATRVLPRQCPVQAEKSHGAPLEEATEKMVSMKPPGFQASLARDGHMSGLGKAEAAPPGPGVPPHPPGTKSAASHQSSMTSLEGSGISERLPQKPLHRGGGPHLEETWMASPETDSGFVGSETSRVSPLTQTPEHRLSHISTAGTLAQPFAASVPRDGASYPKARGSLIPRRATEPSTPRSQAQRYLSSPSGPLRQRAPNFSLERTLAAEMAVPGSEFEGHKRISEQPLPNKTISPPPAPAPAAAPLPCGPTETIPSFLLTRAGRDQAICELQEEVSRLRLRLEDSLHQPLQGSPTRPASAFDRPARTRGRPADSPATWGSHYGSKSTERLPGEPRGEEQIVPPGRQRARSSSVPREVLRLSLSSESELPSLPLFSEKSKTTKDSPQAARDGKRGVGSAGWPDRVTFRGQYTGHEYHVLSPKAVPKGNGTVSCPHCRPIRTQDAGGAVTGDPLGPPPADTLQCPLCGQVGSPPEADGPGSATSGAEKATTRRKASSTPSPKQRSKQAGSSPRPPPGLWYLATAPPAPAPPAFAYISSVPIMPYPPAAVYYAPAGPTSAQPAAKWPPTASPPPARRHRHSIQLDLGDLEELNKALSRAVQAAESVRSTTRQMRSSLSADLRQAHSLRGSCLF
UniProt Q9H2P0: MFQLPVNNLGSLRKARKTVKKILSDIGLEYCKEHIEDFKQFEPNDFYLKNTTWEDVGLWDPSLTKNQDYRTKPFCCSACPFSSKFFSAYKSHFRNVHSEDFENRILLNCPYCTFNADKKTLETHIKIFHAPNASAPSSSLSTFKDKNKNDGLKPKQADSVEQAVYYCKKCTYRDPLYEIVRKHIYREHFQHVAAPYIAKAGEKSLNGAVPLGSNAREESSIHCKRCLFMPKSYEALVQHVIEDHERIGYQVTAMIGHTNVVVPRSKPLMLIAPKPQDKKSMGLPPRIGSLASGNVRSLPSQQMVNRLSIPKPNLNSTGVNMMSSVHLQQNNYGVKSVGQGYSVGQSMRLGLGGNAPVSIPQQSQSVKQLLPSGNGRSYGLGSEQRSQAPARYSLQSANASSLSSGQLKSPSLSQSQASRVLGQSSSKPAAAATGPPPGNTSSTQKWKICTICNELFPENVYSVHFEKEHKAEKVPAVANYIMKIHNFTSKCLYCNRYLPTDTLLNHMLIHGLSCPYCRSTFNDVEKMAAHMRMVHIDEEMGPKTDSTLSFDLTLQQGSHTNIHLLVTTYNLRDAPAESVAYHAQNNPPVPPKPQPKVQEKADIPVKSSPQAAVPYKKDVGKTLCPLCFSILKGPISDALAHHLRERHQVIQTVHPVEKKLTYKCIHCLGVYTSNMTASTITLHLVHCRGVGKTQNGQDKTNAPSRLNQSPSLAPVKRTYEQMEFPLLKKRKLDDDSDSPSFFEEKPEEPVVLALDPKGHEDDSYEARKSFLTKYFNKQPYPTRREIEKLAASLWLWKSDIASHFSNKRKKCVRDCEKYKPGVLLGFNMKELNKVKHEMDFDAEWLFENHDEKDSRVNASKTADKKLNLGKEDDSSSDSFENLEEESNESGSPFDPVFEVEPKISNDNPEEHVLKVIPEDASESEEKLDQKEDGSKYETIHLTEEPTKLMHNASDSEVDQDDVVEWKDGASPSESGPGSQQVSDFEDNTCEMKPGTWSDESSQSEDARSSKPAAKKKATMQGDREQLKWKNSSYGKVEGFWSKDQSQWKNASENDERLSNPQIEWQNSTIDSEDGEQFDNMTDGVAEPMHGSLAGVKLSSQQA
UniProt P27144: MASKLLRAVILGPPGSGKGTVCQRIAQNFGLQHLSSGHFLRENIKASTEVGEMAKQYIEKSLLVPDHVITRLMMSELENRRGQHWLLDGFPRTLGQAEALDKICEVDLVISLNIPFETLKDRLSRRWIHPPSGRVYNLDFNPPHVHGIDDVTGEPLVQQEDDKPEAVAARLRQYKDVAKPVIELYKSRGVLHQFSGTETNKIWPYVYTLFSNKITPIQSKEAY
UniProt Q4G176: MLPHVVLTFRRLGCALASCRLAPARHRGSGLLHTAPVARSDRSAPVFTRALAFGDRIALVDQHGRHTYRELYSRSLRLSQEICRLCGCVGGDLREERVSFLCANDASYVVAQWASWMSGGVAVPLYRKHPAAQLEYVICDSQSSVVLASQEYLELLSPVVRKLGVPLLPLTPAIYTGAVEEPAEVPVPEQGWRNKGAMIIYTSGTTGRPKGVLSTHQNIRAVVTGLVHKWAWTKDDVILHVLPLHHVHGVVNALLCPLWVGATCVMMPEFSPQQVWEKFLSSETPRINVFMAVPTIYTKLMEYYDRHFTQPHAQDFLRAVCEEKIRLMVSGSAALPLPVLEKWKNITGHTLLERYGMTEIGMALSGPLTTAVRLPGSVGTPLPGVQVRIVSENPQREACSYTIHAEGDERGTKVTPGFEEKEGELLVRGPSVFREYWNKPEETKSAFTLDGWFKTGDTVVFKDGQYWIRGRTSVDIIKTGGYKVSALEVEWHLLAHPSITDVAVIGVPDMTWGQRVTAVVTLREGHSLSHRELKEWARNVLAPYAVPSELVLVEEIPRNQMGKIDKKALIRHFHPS
UniProt Q9UPW5: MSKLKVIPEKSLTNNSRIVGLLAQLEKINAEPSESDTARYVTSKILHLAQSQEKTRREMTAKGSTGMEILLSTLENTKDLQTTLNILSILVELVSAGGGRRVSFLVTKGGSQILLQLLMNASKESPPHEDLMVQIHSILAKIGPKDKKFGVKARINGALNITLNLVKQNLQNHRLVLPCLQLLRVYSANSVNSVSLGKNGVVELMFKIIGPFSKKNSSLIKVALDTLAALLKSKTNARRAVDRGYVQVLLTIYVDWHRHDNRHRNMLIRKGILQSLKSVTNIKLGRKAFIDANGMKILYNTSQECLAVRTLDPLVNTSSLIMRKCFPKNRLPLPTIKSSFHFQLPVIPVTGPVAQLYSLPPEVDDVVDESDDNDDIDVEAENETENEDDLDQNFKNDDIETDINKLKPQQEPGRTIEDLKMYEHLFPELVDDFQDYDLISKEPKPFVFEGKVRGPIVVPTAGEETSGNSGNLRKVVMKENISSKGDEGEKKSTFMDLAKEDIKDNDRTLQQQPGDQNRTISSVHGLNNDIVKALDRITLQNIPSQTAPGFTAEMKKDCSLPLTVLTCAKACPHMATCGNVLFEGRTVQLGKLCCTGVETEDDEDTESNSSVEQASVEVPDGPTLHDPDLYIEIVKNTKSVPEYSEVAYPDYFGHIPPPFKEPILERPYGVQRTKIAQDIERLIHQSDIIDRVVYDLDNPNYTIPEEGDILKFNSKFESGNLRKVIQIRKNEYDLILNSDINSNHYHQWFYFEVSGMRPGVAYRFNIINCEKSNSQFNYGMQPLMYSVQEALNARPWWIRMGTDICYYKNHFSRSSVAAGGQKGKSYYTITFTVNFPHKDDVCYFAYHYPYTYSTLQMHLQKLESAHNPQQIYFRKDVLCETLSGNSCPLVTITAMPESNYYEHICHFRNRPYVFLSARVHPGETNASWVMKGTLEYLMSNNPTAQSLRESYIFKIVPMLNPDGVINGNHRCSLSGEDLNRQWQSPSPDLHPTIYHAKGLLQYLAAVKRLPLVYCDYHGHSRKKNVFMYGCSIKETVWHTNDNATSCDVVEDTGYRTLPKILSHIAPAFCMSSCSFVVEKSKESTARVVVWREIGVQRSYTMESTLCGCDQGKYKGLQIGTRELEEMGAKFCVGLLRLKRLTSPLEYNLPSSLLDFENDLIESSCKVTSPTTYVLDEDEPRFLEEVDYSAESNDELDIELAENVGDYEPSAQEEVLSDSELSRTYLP
UniProt P54922: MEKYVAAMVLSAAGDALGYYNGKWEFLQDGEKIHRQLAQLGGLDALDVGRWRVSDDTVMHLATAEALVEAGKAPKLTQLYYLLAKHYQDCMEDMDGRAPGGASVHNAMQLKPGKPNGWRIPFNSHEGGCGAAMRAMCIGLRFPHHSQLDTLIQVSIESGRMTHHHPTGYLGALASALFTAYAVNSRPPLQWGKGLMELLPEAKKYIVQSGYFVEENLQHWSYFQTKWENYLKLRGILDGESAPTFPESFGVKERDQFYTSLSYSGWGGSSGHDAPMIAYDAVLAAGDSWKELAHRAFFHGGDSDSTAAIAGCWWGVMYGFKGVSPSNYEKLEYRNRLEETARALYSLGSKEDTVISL
UniProt Q96P47: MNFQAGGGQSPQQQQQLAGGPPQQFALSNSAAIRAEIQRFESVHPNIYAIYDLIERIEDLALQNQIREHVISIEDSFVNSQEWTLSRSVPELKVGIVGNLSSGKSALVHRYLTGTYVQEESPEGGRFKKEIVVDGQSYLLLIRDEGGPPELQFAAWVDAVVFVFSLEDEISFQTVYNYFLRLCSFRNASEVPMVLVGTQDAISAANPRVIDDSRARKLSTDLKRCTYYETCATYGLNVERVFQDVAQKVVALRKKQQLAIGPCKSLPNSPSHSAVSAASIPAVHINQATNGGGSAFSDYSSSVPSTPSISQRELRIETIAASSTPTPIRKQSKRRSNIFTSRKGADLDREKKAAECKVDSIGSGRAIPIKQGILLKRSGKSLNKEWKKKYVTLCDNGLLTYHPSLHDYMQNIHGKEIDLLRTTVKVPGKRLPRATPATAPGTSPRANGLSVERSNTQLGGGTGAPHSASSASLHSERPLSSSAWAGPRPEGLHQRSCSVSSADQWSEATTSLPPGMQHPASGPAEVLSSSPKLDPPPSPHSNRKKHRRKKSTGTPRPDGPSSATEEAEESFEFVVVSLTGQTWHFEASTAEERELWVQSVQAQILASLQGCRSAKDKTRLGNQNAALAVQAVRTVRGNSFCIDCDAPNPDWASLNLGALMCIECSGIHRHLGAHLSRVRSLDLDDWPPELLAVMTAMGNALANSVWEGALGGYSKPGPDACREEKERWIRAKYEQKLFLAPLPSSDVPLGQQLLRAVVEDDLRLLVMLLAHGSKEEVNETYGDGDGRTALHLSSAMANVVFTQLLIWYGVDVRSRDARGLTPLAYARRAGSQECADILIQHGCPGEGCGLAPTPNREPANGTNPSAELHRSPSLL
UniProt O95831, whole entry, looked up: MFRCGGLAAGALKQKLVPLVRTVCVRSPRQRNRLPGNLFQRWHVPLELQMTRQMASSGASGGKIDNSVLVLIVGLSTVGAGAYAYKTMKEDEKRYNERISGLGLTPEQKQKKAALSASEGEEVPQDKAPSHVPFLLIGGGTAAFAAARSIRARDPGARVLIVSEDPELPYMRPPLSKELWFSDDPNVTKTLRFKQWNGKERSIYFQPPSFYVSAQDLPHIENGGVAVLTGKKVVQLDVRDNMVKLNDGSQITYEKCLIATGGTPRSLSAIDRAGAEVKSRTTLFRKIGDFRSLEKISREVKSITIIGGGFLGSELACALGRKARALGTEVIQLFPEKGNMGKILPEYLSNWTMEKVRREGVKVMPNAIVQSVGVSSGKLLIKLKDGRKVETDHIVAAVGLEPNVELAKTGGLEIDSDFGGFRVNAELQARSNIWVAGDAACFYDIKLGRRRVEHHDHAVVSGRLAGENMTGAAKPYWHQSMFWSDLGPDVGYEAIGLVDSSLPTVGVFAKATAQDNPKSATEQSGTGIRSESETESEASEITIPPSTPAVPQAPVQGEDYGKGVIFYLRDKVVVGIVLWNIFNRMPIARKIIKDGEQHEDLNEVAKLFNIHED

Target	log2 fold change
AIP (UniProt O00170)	inactive: -0.017
ACY1 (UniProt Q03154)	inactive: 0.042
ACTG1 (UniProt I3L4N8)	active: -0.677
ACYP1 (UniProt P07311)	inactive: 0.015
ADIPOR2 (UniProt Q86V24)	inactive: -0.042
ACSL1 (UniProt P33121)	inactive: 0.004
ACOT9 isoform 4 (UniProt Q9Y305)	inactive: 0.056
AGFG1 isoform 4 (UniProt P52594)	inactive: 0.013
ADA (UniProt P00813)	inactive: 0.027
ADAM10 (UniProt O14672)	inactive: 0.014
AFF4 (UniProt Q9UHB7)	inactive: -0.047
AKNA (UniProt Q7Z591)	inactive: -0.024
ACSM3 (UniProt Q53FZ2)	inactive: -0.002
ADH5 (UniProt P11766)	inactive: 0.002
ADNP (UniProt Q9H2P0)	inactive: -0.081
AKR1C3 (UniProt P42330)	active: 0.247
ADD1 isoform 3 (UniProt P35611)	inactive: -0.038

Target	log2 fold change
ADO (UniProt Q96SZ5)	inactive: -0.041
ACSL4 (UniProt O60488)	inactive: -0.079
AKR1A1 (UniProt P14550)	inactive: 0
ACP1 isoform 2 (UniProt P24666)	inactive: -0.001
ACTR1A (UniProt P61163)	inactive: 0.006
AKAP12 (UniProt Q02952)	inactive: 0.049
AK4 (UniProt P27144)	inactive: -0.005
AGPS (UniProt O00116)	inactive: 0.025
ACTB, A0A2R8Y793	inactive: 0.007
ACTR2 (UniProt P61160)	inactive: -0.012
ACSF3 (UniProt Q4G176)	inactive: 0.047
AGTPBP1 (UniProt Q9UPW5)	inactive: 0.051
AHSA1 (UniProt O95433)	inactive: 0.006
ADPRH (UniProt P54922)	inactive: 0.005
AFF1 isoform 2 (UniProt P51825)	inactive: -0.047
AGAP3 isoform 4 (UniProt Q96P47)	inactive: 0.006
AIFM1 (UniProt O95831)	inactive: -0.016

Reformatted with bars between the fields: part of the list above
Target | log2 fold change
ACTG1 (UniProt I3L4N8) | active: -0.677
ACYP1 (UniProt P07311) | inactive: 0.015
ADIPOR2 (UniProt Q86V24) | inactive: -0.042
ACSL1 (UniProt P33121) | inactive: 0.004
ACOT9 isoform 4 (UniProt Q9Y305) | inactive: 0.056
AGFG1 isoform 4 (UniProt P52594) | inactive: 0.013

— the supplement of paper PMC10849652
